Source: PubChem BioAssay AID652243 (Drosophila RNAi Screening Center, 2013)
Screen: 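Fly regulators of androgen-dependent reporter output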 (primary screen). Cell system: Drosophila S2R+ cells. Reagents: long dsRNA against Drosophila genes. Duration: 72 h (48 h, then 24 h hormone). Treatment: synthetic androgen R1881 at 10 nM for 24 h. Measured: 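Per-well raw luminescence of the androgen-driven firefly reporter and of the Renilla control, two replicates each, without normalisation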. Direction: firefly reporter light: higher = more light from androgen-responsive reporter; Renilla control light: higher = more constitutive control signal (cell number, transfection). Hit rule: 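Hit when the log firefly-to-Renilla ratio dropped or increased by a fixed fold versus the mean of GFP or LacZ controls across duplicate plates; lowering cut given as 1.5 and as 3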. Calls: active = hit: reporter lowered or raised; inactive = no hit.
In all, the deposit lists about 24,000 reagents; shown is a random part of those that have a named target and a result. Of all reagents, 246 (1%) are marked active. 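Plates not normalised; calls are printed but the firefly/Renilla ratio behind them is not deposited; fold cut for lowering reported inconsistently.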 Raw values are not corrected between plates. Reagent sequences are not shown. Not given: the amount of reagent.

Depletion of CG18577 [DRSC15352] came out at: firefly reporter light, replicate 1 = 1.21e5; firefly reporter light, replicate 2 = 1.56e5; Renilla control light, replicate 1 = 1.73e6; Renilla control light, replicate 2 = 1.69e6; inactive. Depletion of CG6800 [DRSC16119] came out at: firefly reporter light, replicate 1 = 2.78e5; firefly reporter light, replicate 2 = 3.60e5; Renilla control light, replicate 1 = 3.68e6; Renilla control light, replicate 2 = 3.22e6; inactive. Polr2C [DRSC03415] scored firefly reporter light, replicate 1 = 1.15e6; firefly reporter light, replicate 2 = 3.59e5; Renilla control light, replicate 1 = 7.05e5; Renilla control light, replicate 2 = 6.68e5; inactive. Polr2C [DRSC23584] showed firefly reporter light, replicate 1 = 3.73e5; firefly reporter light, replicate 2 = 3.09e5; Renilla control light, replicate 1 = 9.43e5; Renilla control light, replicate 2 = 4.03e5; inactive. Against GstE12 [DRSC04047], the entry reads firefly reporter light, replicate 1 = 1.31e5; firefly reporter light, replicate 2 = 2.30e5; Renilla control light, replicate 1 = 1.22e6; Renilla control light, replicate 2 = 1.18e6; inactive. Knock-down of GstE12 [DRSC27281] gave: firefly reporter light, replicate 1 = 2.79e5; firefly reporter light, replicate 2 = 2.72e5; Renilla control light, replicate 1 = 6.23e5; Renilla control light, replicate 2 = 6.30e5; inactive.

Pgant7 [DRSC19991] gave firefly reporter light, replicate 1 = 70391; firefly reporter light, replicate 2 = 1.15e5; Renilla control light, replicate 1 = 4.46e5; Renilla control light, replicate 2 = 7.05e5; inactive. For Csp [DRSC11860] the deposit lists firefly reporter light, replicate 1 = 90590; firefly reporter light, replicate 2 = 94375; Renilla control light, replicate 1 = 7.45e5; Renilla control light, replicate 2 = 6.31e5; inactive. Spn [DRSC07986] gave firefly reporter light, replicate 1 = 1.36e5; firefly reporter light, replicate 2 = 1.98e5; Renilla control light, replicate 1 = 3.92e5; Renilla control light, replicate 2 = 3.19e5; inactive. Spn [DRSC08490] gave firefly reporter light, replicate 1 = 8.52e5; firefly reporter light, replicate 2 = 7.53e5; Renilla control light, replicate 1 = 1.41e6; Renilla control light, replicate 2 = 1.31e6; inactive. Against Spn [DRSC08491] the deposit lists firefly reporter light, replicate 1 = 39198; firefly reporter light, replicate 2 = 46121; Renilla control light, replicate 1 = 5.17e5; Renilla control light, replicate 2 = 5.50e5; inactive. Depletion of Hmr [DRSC17740] resulted in: firefly reporter light, replicate 1 = 4.69e5; firefly reporter light, replicate 2 = 6.52e5; Renilla control light, replicate 1 = 3.69e6; Renilla control light, replicate 2 = 3.87e6; inactive.

Knock-down of CG34263 [DRSC38858] resulted in: firefly reporter light, replicate 1 = 7.69e5; firefly reporter light, replicate 2 = 6.65e5; Renilla control light, replicate 1 = 1.88e6; Renilla control light, replicate 2 = 1.37e6; inactive. For Cngl [DRSC19795] the deposit lists firefly reporter light, replicate 1 = 51179; firefly reporter light, replicate 2 = 33281; Renilla control light, replicate 1 = 4.59e5; Renilla control light, replicate 2 = 5.57e5; inactive. With knock-down of Cngl [DRSC20318], the record shows firefly reporter light, replicate 1 = 3.84e5; firefly reporter light, replicate 2 = 4.17e5; Renilla control light, replicate 1 = 2.18e6; Renilla control light, replicate 2 = 3.02e6; inactive. Against Cngl [DRSC23577], the values are firefly reporter light, replicate 1 = 6.25e5; firefly reporter light, replicate 2 = 3.09e5; Renilla control light, replicate 1 = 6.04e5; Renilla control light, replicate 2 = 4.92e5; inactive. For Cngl [DRSC25333], the values are firefly reporter light, replicate 1 = 7.39e5; firefly reporter light, replicate 2 = 6.08e5; Renilla control light, replicate 1 = 8.35e5; Renilla control light, replicate 2 = 7.52e5; inactive. For CG15545 [DRSC15083] the deposit lists firefly reporter light, replicate 1 = 2.10e5; firefly reporter light, replicate 2 = 1.90e5; Renilla control light, replicate 1 = 1.91e6; Renilla control light, replicate 2 = 2.92e6; inactive.

Knock-down of CG15545 [DRSC29523] gave: firefly reporter light, replicate 1 = 3.26e5; firefly reporter light, replicate 2 = 2.96e5; Renilla control light, replicate 1 = 8.38e5; Renilla control light, replicate 2 = 8.38e5; inactive. CG15368 [DRSC23291] gave firefly reporter light, replicate 1 = 5.77e5; firefly reporter light, replicate 2 = 6.67e5; Renilla control light, replicate 1 = 1.08e6; Renilla control light, replicate 2 = 1.47e6; inactive. CG15368 [DRSC25848] showed firefly reporter light, replicate 1 = 2.52e5; firefly reporter light, replicate 2 = 4.47e5; Renilla control light, replicate 1 = 7.35e5; Renilla control light, replicate 2 = 6.26e5; inactive.

An excerpt from above, reduced to “firefly reporter light, replicate 2”.
Cngl [DRSC25333] = 6.08e5
CG15545 [DRSC15083] = 1.90e5
